Reference: the supplement of paper PMC10849652
The list shows a part of the results.

Chains of the proteins cited; added tags and fusions are not shown. Lines headed by an entry give the natural chain unless they say otherwise; changes in a name come on top.
UniProt Q9UJW0, whole entry, looked up: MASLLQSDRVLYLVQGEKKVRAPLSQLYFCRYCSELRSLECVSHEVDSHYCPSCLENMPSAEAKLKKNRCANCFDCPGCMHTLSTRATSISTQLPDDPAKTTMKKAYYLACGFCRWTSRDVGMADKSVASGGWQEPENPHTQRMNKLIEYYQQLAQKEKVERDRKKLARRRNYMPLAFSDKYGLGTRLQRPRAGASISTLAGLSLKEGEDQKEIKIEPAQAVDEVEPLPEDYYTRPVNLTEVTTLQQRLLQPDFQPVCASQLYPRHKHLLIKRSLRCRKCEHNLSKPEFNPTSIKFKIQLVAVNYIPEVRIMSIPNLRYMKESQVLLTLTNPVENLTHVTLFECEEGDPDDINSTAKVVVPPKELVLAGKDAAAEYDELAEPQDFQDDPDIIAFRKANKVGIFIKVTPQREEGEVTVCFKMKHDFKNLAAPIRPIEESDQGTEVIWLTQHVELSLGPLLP
UniProt Q9UER7, whole entry, looked up: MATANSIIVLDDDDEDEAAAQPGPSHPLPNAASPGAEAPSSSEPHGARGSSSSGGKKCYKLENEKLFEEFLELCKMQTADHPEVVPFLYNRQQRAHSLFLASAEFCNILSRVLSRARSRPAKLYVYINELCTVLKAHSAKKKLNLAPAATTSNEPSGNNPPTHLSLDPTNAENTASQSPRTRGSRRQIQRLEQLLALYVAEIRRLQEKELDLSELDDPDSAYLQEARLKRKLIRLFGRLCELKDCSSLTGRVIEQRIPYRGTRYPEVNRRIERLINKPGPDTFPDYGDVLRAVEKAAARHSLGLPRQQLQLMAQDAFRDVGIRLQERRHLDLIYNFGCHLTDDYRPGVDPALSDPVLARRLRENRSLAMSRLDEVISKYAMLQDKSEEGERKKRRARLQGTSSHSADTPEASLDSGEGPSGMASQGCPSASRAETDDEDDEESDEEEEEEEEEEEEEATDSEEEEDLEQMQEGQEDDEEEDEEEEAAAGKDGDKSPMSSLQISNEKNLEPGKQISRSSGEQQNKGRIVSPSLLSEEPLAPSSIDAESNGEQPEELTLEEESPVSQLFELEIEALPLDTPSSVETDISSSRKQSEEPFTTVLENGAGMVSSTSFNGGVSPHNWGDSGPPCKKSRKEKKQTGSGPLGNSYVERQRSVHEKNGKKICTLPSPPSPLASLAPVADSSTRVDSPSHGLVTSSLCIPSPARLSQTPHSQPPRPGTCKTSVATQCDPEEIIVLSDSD
UniProt Q9Y315: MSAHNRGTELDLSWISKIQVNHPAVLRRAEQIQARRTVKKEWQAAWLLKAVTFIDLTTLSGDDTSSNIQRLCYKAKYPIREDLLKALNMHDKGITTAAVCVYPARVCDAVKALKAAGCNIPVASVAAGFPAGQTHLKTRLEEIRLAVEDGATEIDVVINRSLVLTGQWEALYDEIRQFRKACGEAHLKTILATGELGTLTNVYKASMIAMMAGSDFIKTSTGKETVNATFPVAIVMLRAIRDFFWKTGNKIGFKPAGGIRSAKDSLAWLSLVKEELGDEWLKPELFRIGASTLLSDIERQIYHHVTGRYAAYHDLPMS
UniProt P61803: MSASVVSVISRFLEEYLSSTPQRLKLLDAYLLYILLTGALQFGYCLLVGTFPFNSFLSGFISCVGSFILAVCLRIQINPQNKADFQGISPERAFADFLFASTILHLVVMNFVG
UniProt Q9UK59: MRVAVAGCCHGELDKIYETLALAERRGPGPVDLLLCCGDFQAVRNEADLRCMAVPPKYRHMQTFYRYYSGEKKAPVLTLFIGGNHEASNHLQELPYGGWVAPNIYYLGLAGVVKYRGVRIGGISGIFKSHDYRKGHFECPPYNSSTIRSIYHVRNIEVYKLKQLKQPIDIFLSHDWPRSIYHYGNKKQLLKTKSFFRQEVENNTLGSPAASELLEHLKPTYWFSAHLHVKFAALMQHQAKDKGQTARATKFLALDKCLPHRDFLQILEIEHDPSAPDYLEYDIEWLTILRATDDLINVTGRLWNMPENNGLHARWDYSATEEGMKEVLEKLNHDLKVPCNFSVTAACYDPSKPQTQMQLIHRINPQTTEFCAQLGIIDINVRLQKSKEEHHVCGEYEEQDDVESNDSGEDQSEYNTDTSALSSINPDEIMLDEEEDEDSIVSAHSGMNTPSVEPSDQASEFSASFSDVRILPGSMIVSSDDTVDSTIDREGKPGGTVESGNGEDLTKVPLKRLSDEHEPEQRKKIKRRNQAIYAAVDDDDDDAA
UniProt Q8TEB1, whole entry, looked up: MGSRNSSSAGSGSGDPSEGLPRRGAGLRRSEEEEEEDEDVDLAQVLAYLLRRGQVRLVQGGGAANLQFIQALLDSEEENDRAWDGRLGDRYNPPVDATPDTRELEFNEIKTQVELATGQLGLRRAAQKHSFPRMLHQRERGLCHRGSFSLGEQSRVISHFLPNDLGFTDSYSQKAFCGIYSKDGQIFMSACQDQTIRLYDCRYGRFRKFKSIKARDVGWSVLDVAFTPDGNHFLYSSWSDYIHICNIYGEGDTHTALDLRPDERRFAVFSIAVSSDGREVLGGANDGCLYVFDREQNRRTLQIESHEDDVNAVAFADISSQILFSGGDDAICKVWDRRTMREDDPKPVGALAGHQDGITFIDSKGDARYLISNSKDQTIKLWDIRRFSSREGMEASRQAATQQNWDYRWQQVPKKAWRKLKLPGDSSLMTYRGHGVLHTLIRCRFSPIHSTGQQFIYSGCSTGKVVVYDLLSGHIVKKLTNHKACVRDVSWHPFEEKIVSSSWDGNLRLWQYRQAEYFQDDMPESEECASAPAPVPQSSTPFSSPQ
UniProt Q9H8H2: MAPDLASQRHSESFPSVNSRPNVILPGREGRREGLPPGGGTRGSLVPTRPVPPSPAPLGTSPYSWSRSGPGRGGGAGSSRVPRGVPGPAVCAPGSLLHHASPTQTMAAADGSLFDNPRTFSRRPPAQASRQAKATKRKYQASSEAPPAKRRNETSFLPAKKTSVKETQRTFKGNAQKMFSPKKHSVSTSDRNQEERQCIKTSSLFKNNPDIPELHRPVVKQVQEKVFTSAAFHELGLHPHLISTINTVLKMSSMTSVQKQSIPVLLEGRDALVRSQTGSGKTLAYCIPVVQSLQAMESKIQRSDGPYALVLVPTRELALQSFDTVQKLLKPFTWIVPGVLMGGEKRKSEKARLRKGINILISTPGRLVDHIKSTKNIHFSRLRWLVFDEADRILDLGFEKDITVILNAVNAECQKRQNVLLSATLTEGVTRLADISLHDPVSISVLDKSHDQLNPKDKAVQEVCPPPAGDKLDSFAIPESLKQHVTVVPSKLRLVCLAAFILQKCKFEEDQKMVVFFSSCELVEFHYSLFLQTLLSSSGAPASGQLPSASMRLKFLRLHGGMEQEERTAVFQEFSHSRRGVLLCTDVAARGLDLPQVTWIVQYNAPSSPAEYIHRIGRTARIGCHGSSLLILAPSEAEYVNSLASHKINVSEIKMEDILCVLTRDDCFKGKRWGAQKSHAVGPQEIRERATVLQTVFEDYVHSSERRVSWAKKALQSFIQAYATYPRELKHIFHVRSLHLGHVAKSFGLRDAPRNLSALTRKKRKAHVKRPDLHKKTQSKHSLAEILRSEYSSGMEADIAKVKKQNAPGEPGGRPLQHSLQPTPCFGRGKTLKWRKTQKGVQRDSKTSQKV
UniProt P30046: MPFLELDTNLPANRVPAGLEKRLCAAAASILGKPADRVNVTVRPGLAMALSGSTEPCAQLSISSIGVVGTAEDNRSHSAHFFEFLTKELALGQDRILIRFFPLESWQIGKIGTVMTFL
UniProt P51397: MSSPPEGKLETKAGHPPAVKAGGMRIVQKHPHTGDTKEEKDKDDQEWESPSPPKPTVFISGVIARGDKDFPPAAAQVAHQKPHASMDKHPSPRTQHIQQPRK
UniProt Q13838, whole entry, looked up: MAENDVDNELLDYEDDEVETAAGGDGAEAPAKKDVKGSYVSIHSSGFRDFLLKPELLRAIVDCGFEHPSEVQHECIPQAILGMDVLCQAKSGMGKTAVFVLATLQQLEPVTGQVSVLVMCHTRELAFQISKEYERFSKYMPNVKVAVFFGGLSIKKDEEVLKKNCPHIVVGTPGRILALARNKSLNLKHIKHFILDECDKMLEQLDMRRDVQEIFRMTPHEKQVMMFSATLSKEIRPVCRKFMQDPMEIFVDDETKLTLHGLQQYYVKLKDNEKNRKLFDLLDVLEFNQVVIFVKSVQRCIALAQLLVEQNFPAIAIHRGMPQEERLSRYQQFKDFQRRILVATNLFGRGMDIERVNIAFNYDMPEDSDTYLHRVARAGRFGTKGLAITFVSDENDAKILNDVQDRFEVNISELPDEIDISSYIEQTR
UniProt Q9NR30: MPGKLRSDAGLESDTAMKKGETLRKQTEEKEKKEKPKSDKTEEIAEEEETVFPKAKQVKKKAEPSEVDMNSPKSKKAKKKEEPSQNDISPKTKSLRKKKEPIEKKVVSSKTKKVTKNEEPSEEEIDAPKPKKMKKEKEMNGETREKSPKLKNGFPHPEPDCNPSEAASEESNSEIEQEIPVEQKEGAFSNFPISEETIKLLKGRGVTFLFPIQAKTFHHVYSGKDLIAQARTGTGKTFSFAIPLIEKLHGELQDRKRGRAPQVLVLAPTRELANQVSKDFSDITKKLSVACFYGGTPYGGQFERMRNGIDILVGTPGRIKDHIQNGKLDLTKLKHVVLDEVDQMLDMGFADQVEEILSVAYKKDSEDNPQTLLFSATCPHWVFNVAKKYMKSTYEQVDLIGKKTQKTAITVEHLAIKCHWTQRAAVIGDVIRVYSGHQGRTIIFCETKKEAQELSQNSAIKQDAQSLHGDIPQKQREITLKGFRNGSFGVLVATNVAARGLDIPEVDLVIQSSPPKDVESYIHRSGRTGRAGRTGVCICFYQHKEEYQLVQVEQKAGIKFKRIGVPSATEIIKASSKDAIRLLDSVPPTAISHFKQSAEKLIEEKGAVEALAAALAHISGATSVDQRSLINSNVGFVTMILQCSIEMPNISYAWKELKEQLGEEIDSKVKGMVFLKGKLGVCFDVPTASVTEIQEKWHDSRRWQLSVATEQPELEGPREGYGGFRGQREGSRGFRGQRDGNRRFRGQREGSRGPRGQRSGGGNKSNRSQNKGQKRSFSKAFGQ
UniProt P07108: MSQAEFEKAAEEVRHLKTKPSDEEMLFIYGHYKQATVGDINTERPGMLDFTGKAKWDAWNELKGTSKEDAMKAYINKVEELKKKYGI
UniProt Q13206, whole entry, looked up: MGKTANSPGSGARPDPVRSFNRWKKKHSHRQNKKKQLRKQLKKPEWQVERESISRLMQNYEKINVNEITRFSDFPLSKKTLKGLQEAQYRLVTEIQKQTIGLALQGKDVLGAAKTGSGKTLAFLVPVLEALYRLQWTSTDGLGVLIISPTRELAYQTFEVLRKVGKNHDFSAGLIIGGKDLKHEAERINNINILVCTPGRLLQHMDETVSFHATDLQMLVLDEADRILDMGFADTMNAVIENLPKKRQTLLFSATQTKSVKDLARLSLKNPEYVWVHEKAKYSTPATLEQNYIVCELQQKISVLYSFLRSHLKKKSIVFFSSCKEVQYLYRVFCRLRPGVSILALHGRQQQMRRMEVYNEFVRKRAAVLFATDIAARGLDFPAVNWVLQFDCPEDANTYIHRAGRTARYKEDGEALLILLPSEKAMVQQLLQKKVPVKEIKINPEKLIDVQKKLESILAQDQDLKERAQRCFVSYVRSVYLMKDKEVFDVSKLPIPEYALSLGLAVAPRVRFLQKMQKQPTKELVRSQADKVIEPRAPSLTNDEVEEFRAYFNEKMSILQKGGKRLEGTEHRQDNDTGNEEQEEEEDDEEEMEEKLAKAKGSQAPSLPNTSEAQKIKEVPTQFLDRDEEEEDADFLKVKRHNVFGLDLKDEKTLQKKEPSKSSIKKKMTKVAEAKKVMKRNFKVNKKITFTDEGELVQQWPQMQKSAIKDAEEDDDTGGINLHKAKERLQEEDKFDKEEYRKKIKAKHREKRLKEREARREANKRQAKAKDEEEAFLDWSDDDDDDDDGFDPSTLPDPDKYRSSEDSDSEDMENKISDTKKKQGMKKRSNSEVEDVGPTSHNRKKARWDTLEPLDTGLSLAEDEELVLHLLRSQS
UniProt O95865: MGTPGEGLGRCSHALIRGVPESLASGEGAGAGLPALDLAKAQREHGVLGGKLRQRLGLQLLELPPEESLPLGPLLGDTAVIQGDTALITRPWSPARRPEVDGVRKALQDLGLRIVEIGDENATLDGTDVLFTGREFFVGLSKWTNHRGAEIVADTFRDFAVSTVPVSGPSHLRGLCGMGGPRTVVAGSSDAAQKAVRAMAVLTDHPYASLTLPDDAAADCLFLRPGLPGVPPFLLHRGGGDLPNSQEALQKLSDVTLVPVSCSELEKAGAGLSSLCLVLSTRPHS
UniProt P27707: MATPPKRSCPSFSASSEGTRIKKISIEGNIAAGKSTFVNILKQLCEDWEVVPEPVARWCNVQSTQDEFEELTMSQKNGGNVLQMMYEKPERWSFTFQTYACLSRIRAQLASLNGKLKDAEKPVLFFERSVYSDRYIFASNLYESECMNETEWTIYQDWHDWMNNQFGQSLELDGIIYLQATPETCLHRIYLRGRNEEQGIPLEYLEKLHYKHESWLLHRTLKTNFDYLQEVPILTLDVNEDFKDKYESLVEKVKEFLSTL

Assays:
Test in all cases: log2 fold change, soluble protein after heating vs DMSO (PISA); higher = thermal stabilisation; K562 lysate, 10 uM; active = over 0.2 and 3.5 SD of the protein, either way, in both replicates (recomputed)
nilotinib = compound: Cc1cn(-c2cc(NC(=O)c3ccc(C)c(Nc4nccc(-c5cccnc5)n4)c3)cc(C(F)(F)F)c2)cn1 [nilotinib]
How it was run: (§1)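 Following dounce homogenisation of K562 pellets in PBS pH 7.4 with 1 mM MgCl2, crude extract at 1 mg/mL protein was incubated for 30 min with 10 μM compound. Aliquots were then heated for 3 min over 48°C-58°C and pooled, NP-40 was added to 0.5% at 4°C, and soluble protein was recovered as the supernatant at 21,000xg for 90 min. Channel-sum-equalised TMTpro 16plex LC-MS/MS quantified this protein. Each value, from duplicates, is a log-two fold change in thermal stability relative to solvent controls.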

[1] = compound: Cc1nc(Nc2n[nH]c3c2CN(C(=O)N[C@H](CN(C)C)c2ccccc2)C3(C)C)c2sccc2n1
How it was run: as §1

dasatinib = compound: Cc1nc(Nc2ncc(C(=O)Nc3c(C)cccc3Cl)s2)cc(N2CCN(CCO)CC2)n1 [dasatinib]
How it was run: as §1

[2] = compound: Cc1ncc(-c2ccnc(Nc3ccc(S(C)(=O)=O)cc3)n2)n1C(C)C
How it was run: as §1

[3] = compound: Cn1cc(-c2ccc3c(c2)CCN3C(=O)Cc2cccc(C(F)(F)F)c2)c2c(N)ncnc21
How it was run: as §1

quisinostat = compound: Cn1cc(CNCC2CCN(c3ncc(C(=O)NO)cn3)CC2)c2ccccc21 [quisinostat]
How it was run: as §1

tipifarnib = compound: Cn1cncc1[C@@](N)(c1ccc(Cl)cc1)c1ccc2c(c1)c(-c1cccc(Cl)c1)cc(=O)n2C [tipifarnib]
How it was run: as §1

[4] = compound: NC(=O)Nc1cc(-c2cccc(F)c2)sc1C(=O)N[C@H]1CCCNC1
How it was run: as §1

[5] = compound: NC(=O)c1cnc(N[C@@H]2CCCC[C@@H]2N)nc1Nc1cccc(-n2nccn2)c1
How it was run: as §1

[6] = compound: NC1(c2ccc(-c3nc4ccn5c(=O)[nH]nc5c4cc3-c3ccccc3)cc2)CCC1
How it was run: as §1

[7] = compound: NCC(=O)Nc1ccc(-n2nc(C(F)(F)F)cc2-c2ccc3c(ccc4ccccc43)c2)cc1
How it was run: as §1

vorinostat = compound: O=C(CCCCCCC(=O)Nc1ccccc1)NO [vorinostat]
How it was run: as §1

silmitasertib = compound: O=C(O)c1ccc2c(c1)nc(Nc1cccc(Cl)c1)c1ccncc12 [silmitasertib]
How it was run: as §1

[8] = compound: O=C1NC(=O)C(c2cnc3ccccn23)=C1c1cn2c3c(cc(F)cc13)CN(C(=O)N1CCCCC1)CC2
How it was run: as §1

entospletinib = compound: c1cn2cc(-c3ccc4cn[nH]c4c3)nc(Nc3ccc(N4CCOCC4)cc3)c2n1 [entospletinib]
How it was run: as §1

Measured: log2 fold change

DCTN4 (UniProt Q9UJW0)
inactive: nilotinib 0.026 | [1] 0.008 | dasatinib -0.055 | [2] 0.027 | [3] -0.02 | quisinostat 0.032 | tipifarnib 0.03 | [4] -0.046 | [5] 0.015 | [6] -0.002 | [7] -0.008 | vorinostat 0.04 | silmitasertib -0.006 | [8] -0.002 | entospletinib -0.007

DCAF8 (UniProt Q5TAQ9)
inactive: nilotinib 0.038 | [1] -0.044 | dasatinib 0.057 | [2] -0.075 | [3] 0.014 | quisinostat -0.031 | tipifarnib 0.113 | [4] -0.029 | [5] -0.006 | [6] 0.031 | [7] 0.01 | vorinostat -0.028 | silmitasertib 0.005 | [8] -0.019 | entospletinib -0.021

DAXX (UniProt Q9UER7)
inactive: nilotinib 0.01 | [1] -0.044 | dasatinib 0.043 | [2] 0.07 | [3] -0.042 | quisinostat -0.122 | tipifarnib -0.045 | [4] 0.038 | [5] 0.003 | [6] -0.048 | [7] 0.069 | vorinostat -0.049 | silmitasertib -0.005 | [8] 0.039 | entospletinib -0.008

DERA (UniProt Q9Y315)
inactive: nilotinib 0.037 | [1] -0.027 | dasatinib 0.057 | [2] 0.006 | [3] -0.017 | quisinostat -0.008 | tipifarnib 0.08 | [4] -0.017 | [5] -0.021 | [6] 0 | [7] -0.015 | vorinostat 0.063 | silmitasertib -0.003 | [8] 0.018 | entospletinib 0

DAD1 (UniProt P61803)
inactive: nilotinib -0.084 | [1] 0.02 | dasatinib -0.017 | [2] 0.136 | [3] -0.02 | quisinostat -0.075 | tipifarnib -0.112 | [4] 0.042 | [5] 0.083 | [6] -0.102 | [7] 0.05 | vorinostat 0 | silmitasertib 0.028 | [8] 0.024 | entospletinib 0.093

DBR1 (UniProt Q9UK59)
inactive: nilotinib -0.016 | [1] 0.028 | dasatinib -0.017 | [2] -0.003 | [3] -0.007 | quisinostat -0.011 | tipifarnib 0.002 | [4] 0.011 | [5] 0.009 | [6] 0.023 | [7] -0.015 | vorinostat 0.038 | silmitasertib 0.021 | [8] -0.041 | entospletinib -0.007

DEGS1 (UniProt O15121)
inactive: nilotinib 0.008 | [1] -0.031 | dasatinib -0.056 | [2] 0.002 | [3] -0.122 | quisinostat -0.042 | tipifarnib 0.062 | [4] 0.008 | [5] 0 | [6] 0.098 | [7] -0.027 | vorinostat 0.157 | silmitasertib -0.095 | [8] 0.009 | entospletinib -0.024

DCAF11 (UniProt Q8TEB1)
inactive: nilotinib 0.007 | [1] 0.082 | dasatinib -0.047 | [2] 0.04 | [3] -0.001 | quisinostat -0.054 | tipifarnib 0.055 | [4] 0.022 | [5] -0.01 | [6] -0.017 | [7] -0.006 | vorinostat 0.043 | silmitasertib -0.024 | [8] 0.005 | entospletinib 0.008

DDX31 (UniProt Q9H8H2)
inactive: nilotinib -0.035 | [1] 0.02 | dasatinib -0.04 | [2] -0.017 | [3] -0.022 | quisinostat 0.005 | tipifarnib 0.018 | [4] 0.111 | [5] 0.099 | [6] 0.027 | [7] 0.027 | vorinostat 0.039 | silmitasertib -0.041 | [8] -0.048 | entospletinib -0.014

DDT (UniProt P30046)
inactive: nilotinib 0.076 | [1] -0.003 | dasatinib -0.002 | [2] -0.026 | [3] -0.031 | quisinostat 0.026 | tipifarnib 0.061 | [4] -0.018 | [5] -0.07 | [6] 0.031 | [7] -0.026 | vorinostat 0.092 | silmitasertib -0.011 | [8] 0.042 | entospletinib -0.064

DAP (UniProt P51397)
inactive: nilotinib 0.027 | [1] -0.011 | dasatinib 0.004 | [2] 0.028 | [3] -0.056 | quisinostat 0.017 | tipifarnib 0.026 | [4] -0.004 | [5] -0.053 | [6] 0.002 | [7] 0.009 | vorinostat 0.13 | silmitasertib -0.088 | [8] 0.028 | entospletinib -0.002

DDX39B isoform 2 (UniProt Q13838)
inactive: nilotinib 0.015 | [1] -0.01 | dasatinib -0.001 | [2] -0.007 | [3] 0.001 | quisinostat 0.034 | tipifarnib -0.006 | [4] 0.004 | [5] 0.003 | [6] 0.01 | [7] 0.004 | vorinostat 0.053 | silmitasertib 0.021 | [8] -0.02 | entospletinib -0.004

Copied from the results shown (four entries):
DCAF11 (UniProt Q8TEB1)
inactive: nilotinib 0.007 | [1] 0.082 | dasatinib -0.047 | [2] 0.04 | [3] -0.001 | quisinostat -0.054 | tipifarnib 0.055 | [4] 0.022 | [5] -0.01 | [6] -0.017 | [7] -0.006 | vorinostat 0.043 | silmitasertib -0.024 | [8] 0.005 | entospletinib 0.008

DDX31 (UniProt Q9H8H2)
inactive: nilotinib -0.035 | [1] 0.02 | dasatinib -0.04 | [2] -0.017 | [3] -0.022 | quisinostat 0.005 | tipifarnib 0.018 | [4] 0.111 | [5] 0.099 | [6] 0.027 | [7] 0.027 | vorinostat 0.039 | silmitasertib -0.041 | [8] -0.048 | entospletinib -0.014

DDT (UniProt P30046)
inactive: nilotinib 0.076 | [1] -0.003 | dasatinib -0.002 | [2] -0.026 | [3] -0.031 | quisinostat 0.026 | tipifarnib 0.061 | [4] -0.018 | [5] -0.07 | [6] 0.031 | [7] -0.026 | vorinostat 0.092 | silmitasertib -0.011 | [8] 0.042 | entospletinib -0.064

DAP (UniProt P51397)
inactive: nilotinib 0.027 | [1] -0.011 | dasatinib 0.004 | [2] 0.028 | [3] -0.056 | quisinostat 0.017 | tipifarnib 0.026 | [4] -0.004 | [5] -0.053 | [6] 0.002 | [7] 0.009 | vorinostat 0.13 | silmitasertib -0.088 | [8] 0.028 | entospletinib -0.002

Further records:

DAP3 (UniProt P51398)
inactive: nilotinib 0 | [1] 0 | dasatinib 0.024 | [2] 0.003 | [3] 0.032 | quisinostat -0.057 | tipifarnib -0.011 | [4] 0.035 | [5] 0.02 | [6] 0.026 | [7] -0.022 | vorinostat -0.083 | silmitasertib 0.012 | [8] 0.071 | entospletinib 0.003

DDX21 (UniProt Q9NR30)
inactive: nilotinib 0.001 | [1] -0.007 | dasatinib -0.014 | [2] 0.003 | [3] 0 | quisinostat -0.005 | tipifarnib 0.013 | [4] 0.024 | [5] -0.006 | [6] -0.022 | [7] 0.021 | vorinostat 0.06 | silmitasertib 0.041 | [8] 0.036 | entospletinib -0.005

DENND4C (UniProt Q5VZ89)
inactive: nilotinib 0.019 | [1] 0.024 | dasatinib -0.042 | [2] 0.047 | [3] 0.029 | quisinostat -0.017 | tipifarnib -0.025 | [4] 0.013 | [5] 0.004 | [6] 0.025 | [7] 0.013 | vorinostat -0.136 | silmitasertib 0.007 | [8] -0.015 | entospletinib -0.012

DDHD2 (UniProt O94830)
inactive: nilotinib 0.017 | [1] 0.007 | dasatinib 0.025 | [2] -0.012 | [3] 0 | quisinostat -0.013 | tipifarnib -0.024 | [4] 0.039 | [5] -0.019 | [6] 0.017 | [7] 0.014 | vorinostat -0.054 | silmitasertib 0.031 | [8] 0.019 | entospletinib -0.014

DDA1 (UniProt Q9BW61)
active: vorinostat -0.289
inactive: nilotinib 0.003 | [1] 0.008 | dasatinib -0.011 | [2] -0.056 | [3] 0.006 | quisinostat -0.006 | tipifarnib -0.008 | [4] -0.023 | [5] -0.027 | [6] 0.023 | [7] -0.024 | silmitasertib -0.006 | [8] 0.05 | entospletinib 0.054

DBI isoform 5 (UniProt P07108)
inactive: nilotinib 0.003 | [1] 0.094 | dasatinib 0.006 | [2] 0.041 | [3] 0.015 | quisinostat 0.035 | tipifarnib -0.002 | [4] -0.038 | [5] -0.032 | [6] -0.059 | [7] -0.095 | vorinostat 0.162 | silmitasertib -0.07 | [8] 0.039 | entospletinib -0.124

DDX10 (UniProt Q13206)
inactive: nilotinib 0.032 | [1] -0.003 | dasatinib -0.047 | [2] 0.063 | [3] -0.01 | quisinostat 0.146 | tipifarnib 0.076 | [4] 0.086 | [5] -0.117 | [6] -0.038 | [7] -0.085 | vorinostat -0.073 | silmitasertib 0.058 | [8] 0.031 | entospletinib -0.01

DDAH2 (UniProt O95865)
inactive: nilotinib 0.03 | [1] 0.022 | dasatinib 0.023 | [2] -0.051 | [3] -0.016 | quisinostat 0.041 | tipifarnib 0.026 | [4] -0.052 | [5] -0.009 | [6] 0.005 | [7] -0.124 | vorinostat 0.091 | silmitasertib 0.002 | [8] -0.026 | entospletinib -0.048

DCK (UniProt P27707)
inactive: nilotinib 0.031 | [1] 0.056 | dasatinib 0.074 | [2] 0.077 | [3] -0.007 | quisinostat -0.06 | tipifarnib -0.008 | [4] -0.024 | [5] -0.012 | [6] -0.02 | [7] 0.009 | vorinostat 0.179 | silmitasertib -0.018 | [8] 0.036 | entospletinib 0.008
